The list shows a part of the results. Repeats are few or missing, and single values can be far off.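 Cells were imaged in 1,536-well plates, and nuclei stained with an antibody against cleaved PARP were counted against all DNA-stained nuclei to give the apoptosis fraction. Screening doses were chosen to leave most cells alive, and resting and induced cleaved-PARP levels differ strongly between cell lines.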
Key:
Assay in all cases: cleaved PARP positive nuclei fraction relative to DMSO control; melanoma cells; higher = more apoptosis
Conditions in all cases: library dose: low library concentration; 72 h
501Mel = tested on: 501Mel
A101D = tested on: A101D
A2058 = tested on: A2058
A375 = tested on: A375
C32 = tested on: C32
CBRC008 = tested on: CBRC008 (line from a melanoma biopsy)
CBRC013 = tested on: CBRC013 (line from a melanoma biopsy)
CBRC014 = tested on: CBRC014 (line from a melanoma biopsy)
CBRC016 = tested on: CBRC016 (line from a melanoma biopsy)
CBRC017 = tested on: CBRC017 (line from a melanoma biopsy)
COLO792 = tested on: COLO792
COLO800 = tested on: COLO800
COLO829 = tested on: COLO829
G361 = tested on: G361
IPC-298 = tested on: IPC-298
IST-MEL1 = tested on: IST-MEL1
LB2518-MEL = tested on: LB2518-MEL
LOXIMVI = tested on: LOXIMVI
MEL-HO = tested on: MEL-HO

Row | SMILES | cleaved PARP positive nuclei fraction (501Mel) | cleaved PARP positive nuclei fraction (A101D) | cleaved PARP positive nuclei fraction (A2058) | cleaved PARP positive nuclei fraction (A375) | cleaved PARP positive nuclei fraction (C32) | cleaved PARP positive nuclei fraction (CBRC008) | cleaved PARP positive nuclei fraction (CBRC013) | cleaved PARP positive nuclei fraction (CBRC014) | cleaved PARP positive nuclei fraction (CBRC016) | cleaved PARP positive nuclei fraction (CBRC017) | cleaved PARP positive nuclei fraction (COLO792) | cleaved PARP positive nuclei fraction (COLO800) | cleaved PARP positive nuclei fraction (COLO829) | cleaved PARP positive nuclei fraction (G361) | cleaved PARP positive nuclei fraction (IPC-298) | cleaved PARP positive nuclei fraction (IST-MEL1) | cleaved PARP positive nuclei fraction (LB2518-MEL) | cleaved PARP positive nuclei fraction (LOXIMVI) | cleaved PARP positive nuclei fraction (MEL-HO)
1 | CN1CCN(c2ccc3nc(-c4c(N)c5c(F)cccc5[nH]c4=O)[nH]c3c2)CC1 [Dovitinib] + OCCn1cc(-c2cnc3nnn(Cc4ccc5ncccc5c4)c3n2)cn1 [PF04217903] (first compound 0.1 µM, partner dose 1 µM) | 104% | 88.7% | 273% | 117% | 84.6% | 78.5% | 105% | 101% | 87% | 100% | 163% | 65.2% | 96.6% | 181% | 92.7% | 49.3% | 110% | 98.9% | 126%
2 | CNC(=O)c1cc(Oc2ccc(NC(=O)Nc3ccc(Cl)c(C(F)(F)F)c3)cc2)ccn1 [sorafenib] + C[C@@H]1CCN(C(=O)CC#N)C[C@@H]1N(C)c1ncnc2[nH]ccc12 [CP690550] (first compound 0.4 µM, partner dose 1 µM) | 87.4% | 79.5% | 126% | 85.1% | 117% | 90.3% | 95.4% | 469% | 22% | 96.9% | 46.6% | 64.7% | 149% | 48% | 47.5% | 201% | 19.3% | 194% | 186%
3 | CO[C@H]1C[C@@H]2CC[C@@H](C)[C@@](O)(O2)C(=O)C(=O)N2CCCC[C@H]2C(=O)O[C@H]([C@H](C)C[C@@H]2CC[C@@H](OCCO)[C@H](OC)C2)CC(=O)[C@H](C)/C=C(\C)[C@@H](O)[C@@H](OC)C(=O)[C@H](C)C[C@H](C)/C=C/C=C/C=C/1C [everolimus] + CC(C)(C)c1cnc(CSc2cnc(NC(=O)C3CCNCC3)s2)o1 [SNS-032] (first compound 0.02 µM, partner dose 0.01 µM) | 144% | 102% | 144% | 369% | 50.3% | 174% | 56.7% | 92.5% | 162% | 126% | 118% | 85% | 191% | 60.2% | 117% | 112% | 59.2% | 82.4% | 51.9%
4 | CS(=O)(=O)CCNCc1ccc(-c2ccc3ncnc(Nc4ccc(OCc5cccc(F)c5)c(Cl)c4)c3c2)o1 [lapatinib] + OCCn1cc(-c2cnc3nnn(Cc4ccc5ncccc5c4)c3n2)cn1 [PF04217903] (first compound 0.8 µM, partner dose 1 µM) | 81.9% | 41.9% | 46% | 134% | 36.5% | 280% | 105% | 68.1% | 68.3% | 79.3% | 87.5% | 34.7% | 83.3% | 158% | 96.2% | 417% | 180% | 83.8% | 139%
5 | O=C(O)c1ccc2c(c1)nc(Nc1cccc(Cl)c1)c1ccncc12 + CC(C)(C)c1cnc(CSc2cnc(NC(=O)C3CCNCC3)s2)o1 [SNS-032] (first compound 0.4 µM, partner dose 0.01 µM) | 97.3% | 76% | 43.6% | 108% | 49.5% | 284% | 105% | 281% | 81.2% | 205% | 125% | 74.9% | 78.5% | 134% | 94.2% | 39.1% | 51.1% | 251% | 78.8%
6 | Nc1nc(F)nc2c1ncn2[C@@H]1O[C@H](CO)[C@@H](O)[C@@H]1O [fludarabine] + O=C(CCCCCCC(=O)Nc1ccccc1)NO [vorinostat] (first compound 0.2 µM, partner dose 0.08 µM) | 3830% | 77.3% | 194% | 7330% | 144% | 72.6% | 162% | 95% | 132% | 180% | 104% | 179% | 80.6% | 147% | 46.3% | 205% | 41% | 141% | 155%
7 | CCCS(=O)(=O)Nc1ccc(F)c(C(=O)c2c[nH]c3ncc(Cl)cc23)c1F + O=C(Nc1cccc(Cl)c1)Nc1ncc(CCNc2ncnc3ccsc23)s1 [SNS314] (first compound 0.08 µM, partner dose 0.0008 µM) | 90% | 88.8% | 54.4% | 247% | 61.3% | 111% | 98.3% | 23.1% | 107% | 107% | 85.7% | 29.7% | 146% | 131% | 47.8% | 210% | 45.5% | 35.9% | 66.8%
8 | C=C(c1ccc(C(=O)O)cc1)c1cc2c(cc1C)C(C)(C)CCC2(C)C [Bexarotene] + COc1cc(Nc2ncc(F)c(Nc3ccc4c(n3)NC(=O)C(C)(C)O4)n2)cc(OC)c1OC [Tamatinib] (first compound 2 µM, partner dose 0.4 µM) | 99.6% | 73.4% | 135% | 130% | 122% | 408% | 127% | 102% | 130% | 118% | 80.9% | 74.5% | 119% | 38.2% | 100% | 34.8% | 95.2% | 19.3% | 395%
